Measured values as given in paper PMC10693550, “Programmable de novo designed coiled coil-mediated phase separation in mammalian cells” (Nature Communications, 2023).
No end group written: not given here.

Tested on: complementary peptide
Experiment: Isothermal titration calorimetry (ITC) of orthogonal CC peptide pairs
Format: binding
Settings: 50 mM Tris pH 7.5, 150 mM NaCl, 1 mM TCEP
Protocol: MicroCal PEAQ-ITC (Malvern) was used to measure the equilibrium dissociation constant (Kd) of orthogonal CC pairs. A 40-µl injection syringe was filled with the peptide solution (1 mM P5f, P13f; 5.6 mM S1h or 5.4 mM S3h) in 50 mM Tris pH of 7.5, 150 mM NaCl, and 1 mM TCEP. The samples were injected into an ITC cell (volume 200 µl) filled with a complementary peptide (100 µM P6f or P14f and 560 µM S2h or 540 µM S4h) in a matching buffer through a 19-step process. The injection volumes were 2 µl and were spaced 120 s apart, except for the first priming injection of 0.4 µl with 150 s spacing. Raw thermograms were integrated with the software NITPIC[83], interaction analysis was done with SEDPHAT[84], and titration curves were visualized with a companion GUSSI software. Monte Carlo simulation for non-linear regression, aligning the model function with experimental values 1000 times was used to obtain uncertainties in the fitted model.
Supplementary Figure 2: Binding analysis between the weak 3-heptad and strong 4-heptad CC forming segment using isothermal titration calorimetry (ITC). a) For peptide pair S1h + S2h peptide concentration in 40 µl injection syringe was 5.6 mM for S1h and concentration of complementary peptide S2h in ITC cell (volume 200 µl) was 560 […]
concentration in 40 µl injection syringe was 5.4 mM S3h and concentration of complementary peptide S4h in ITC cell (volume 200 µl) was 540 µM.
± 0.5 kcal/mol. For peptide pair c) P5f + P6f and d) P13f + P14f, which are 4-heptad CC.
Peptide concentration in 40 µl injection syringe was 1 mM for P5f and P13f and concentration […]
± 0.5 µM and ΔH -13.7 +- 0.6 kcal/mol and d) Kd 2.3 ± 0.2 µM and ΔH -14.7 ± 0.6 kcal/mol.
All the peptides were dissolved in a matching buffer 50 mM Tris pH of 7.5, 150 mM NaCl, […]
(1 picture or pasted object on this page, not shown here)

Row | Sequence | ΔH [kcal/mol]
1 | EIAALEEENAALEQKIAALKE [S3h-S4h] | -11.1 ± 0.5
2 | KIAALKEEIAALEQKNAALKE [S1h-S2h] | -22.4 ± 1.4
3 | KIAALKEEIAALEQKNAALKEENAALEA [P13f-P14f] | -14.7 ± 0.6
